Results deposited as PubChem BioAssay AID504804 (Drosophila RNAi Screening Center, 2011)

Screen: 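dsRNAs that improve Kc cell survival under doxorubicin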 (primary screen)
Cells: Drosophila Kc cells
Reagents: long dsRNA against Drosophila genes, 0.5 µg dsRNA per well
Time to read-out: 96 h (48 h knock-down, then 48 h drug)
Challenge: doxorubicin 5 µg/ml for 48 h, added 48 h after dsRNA
Measurement: 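Luminescent ATP counts per replicate, not normalised, reflecting viable cells after 48 h dsRNA knock-down followed by 48 h of 5 µg/ml doxorubicin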
Scale: raw ATP luminescence: higher = more viable cells, protection from doxorubicin
Call rule: 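Active when both duplicate wells lie at least 2 SD above the plate mean and protection is confirmed by rescreening and independent dsRNAs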
In all, the deposit lists about 19,000 reagents; this is an unselected part of those with a known target gene and a result. Over the whole deposit, 47 (0.25%) got an active call. 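Signals are raw, not normalised; exact z-scores behind calls not deposited; actives needed confirmation, so some wells reaching 2 SD are inactive.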 Entries without a mark were called inactive. Reagents against one gene are numbered here. A plus sign joins genes that one reagent is predicted to hit.

| gene | reagent | raw ATP luminescence, replicate 1 | raw ATP luminescence, replicate 2 |
| --- | --- | --- | --- |
| CG5708 | 1 | 62223 | 80847 |
| js | 1 | 83710 | 66810 |
| RpS21 | 1 | 76637 | 1.15e5 |
| Hen1 | 1 | 60890 | 44893 |
| 4E-T | 1 | 42270 | 53270 |
| Skeletor (retired record) | 1 | 68947 | 48550 |
| Skeletor (retired record) | 2 | 37623 | 20737 |
| CG7044 | 1 | 73490 | 57790 |
| CG7304 | 1 | 83373 | 63997 |
| phr6-4 | 1 | 72083 | 69360 |
| Ube4A | 1 | 94427 | 74227 |
| Hug | 1 | 48013 | 65197 |
| baf | 1 | 42620 | 76870 |
| atlas | 1 | 32503 | 63380 |
| DUBAI | 1 | 64843 | 59250 |
| CG32727 | 1 | 1.76e5 | 1.61e5 |
| Rab3-GAP | 1 | 1.09e5 | 85220 |
| CG15456 | 1 | 4.65e5 | 3.35e5 |
| Cpr49Ae | 1 | 63240 | 61260 |
| E5 | 1 | 58030 | 63412 |
| E5 | 2 | 21110 | 16670 |
| CG17325 + CG42305 | 1 | 62267 | 57980 |
| CAH16 | 1 | 62470 | 62480 |
| Cyp9b2 | 1 | 49053 | 79823 |
| CG12898 | 1 | 52797 | 90237 |
| IFT43 | 1 | 93277 | 59130 |
| CG11581 | 1 | 3.17e5 | 2.90e5 |
| Best3 | 1 | 64063 | 50700 |
| l(3)73Ah | 1 | 72910 | 55127 |
| ttv | 1 | 49713 | 55083 |
| CG8726 | 1 | 66250 | 60583 |
| CheB98a | 1 | 44660 | 33830 |
| GstD3 | 1 | 53587 | 59977 |
| CG9813 | 1 | 49747 | 25507 |
| cup | 1 | 1.28e5 | 78670 |
| CG31562 (retired record) | 1 | 67933 | 54397 |
| CG31562 (retired record) | 2 | 65553 | 65417 |
| CG11307 | 1 | 24513 | 19830 |
| eIF2A | 1 | 25177 | 23707 |
| Ziz | 1 | 24963 | 25753 |
| Ziz | 2 | 42803 | 29627 |
| CG6813 | 1 | 69607 | 67557 |
| CG3982 | 1 | 57277 | 41513 |
| CG6638 | 1 | 80470 | 84640 |
| Orc4 | 1 | 78803 | 63757 |
| GluRS-m | 1 | 82807 | 59987 |
| Golgin84 | 1 | 58830 | 45070 |
| CG18735 | 1 | 67710 | 62903 |
| Or65a | 1 | 1.15e5 | 1.59e5 |
| CG2854 | 1 | 51240 | 58850 |
| CG10587 | 1 | 71823 | 67117 |
| CG5390 | 1 | 42950 | 81927 |
| sbm | 1 | 3.61e5 | 3.11e5 |
| Ir7g | 1 | 43250 | 49900 |
| Alh | 1 | 66390 | 19213 |
| Alh | 2 | 45637 | 50717 |
| Alh | 3 | 43037 | 49180 |
| Mst84B | 1 | 62853 | 67230 |
| CG6733 | 1 | 1.09e5 | 89120 |
| CG3598 | 1 | 48720 | 40850 |
| twz | 1 | 46340 | 62257 |
| CG42680 | 1 | 2.89e5 | 2.60e5 |
| CG14589 | 1 | 42327 | 43700 |
| qm | 1 | 83717 | 80177 |
| Adk3 | 1 | 79960 | 63160 |
| CG11007 | 1 | 46163 | 56097 |
| Spn42Db | 1 | 29533 | 1.12e5 |
| CG12689 | 1 | 49100 | 44860 |
| mus81 | 1 | 52560 | 50050 |
| mus81 | 2 | 67100 | 52810 |
| RtcB | 1 | 54607 | 45900 |
| CG31104 | 1 | 66170 | 75290 |
| AstC-R1 | 1 | 51720 | 50190 |
| Acadvl | 1 | 63447 | 76757 |
| CG7990 | 1 | 1.47e5 | 1.67e5 |
| aph-1 | 1 | 91880 | 77323 |
| mRpL15 | 1 | 23437 | 23750 |
| Trs20 | 1 | 78913 | 69403 |
| Ccdc114 | 1 | 1.08e5 | 61310 |
| tacc | 1 | 37930 | 48087 |
| tacc | 2 | 21190 | 19317 |
| CG18493 | 1 | 59020 | 68600 |
| CG17292 | 1 | 1.19e5 | 92610 |
| Ctr1A | 1 | 33010 | 39810 |

8 entries from above, sorted by “raw ATP luminescence, replicate 2”, high to low:
| gene | reagent | raw ATP luminescence, replicate 1 | raw ATP luminescence, replicate 2 |
| --- | --- | --- | --- |
| RpS21 | 1 | 76637 | 1.15e5 |
| CG5708 | 1 | 62223 | 80847 |
| js | 1 | 83710 | 66810 |
| CG7044 | 1 | 73490 | 57790 |
| 4E-T | 1 | 42270 | 53270 |
| Skeletor (retired record) | 1 | 68947 | 48550 |
| Hen1 | 1 | 60890 | 44893 |
| Skeletor (retired record) | 2 | 37623 | 20737 |
